Publication PMC8065111 (Nature Communications, 2021)
Results are given in words; binding and its absence hold for the method and conditions named. For part of these data: Binding seen in cells or lysates may run through a third protein. Some results given as binding are weak or reduced against the parent protein; the word gives no strength.

The chains behind the UniProt entries cited, without tags or fusion partners. Where a name states a change or a piece, a line headed by the entry shows the natural chain unless it says otherwise.
UniProt P46940: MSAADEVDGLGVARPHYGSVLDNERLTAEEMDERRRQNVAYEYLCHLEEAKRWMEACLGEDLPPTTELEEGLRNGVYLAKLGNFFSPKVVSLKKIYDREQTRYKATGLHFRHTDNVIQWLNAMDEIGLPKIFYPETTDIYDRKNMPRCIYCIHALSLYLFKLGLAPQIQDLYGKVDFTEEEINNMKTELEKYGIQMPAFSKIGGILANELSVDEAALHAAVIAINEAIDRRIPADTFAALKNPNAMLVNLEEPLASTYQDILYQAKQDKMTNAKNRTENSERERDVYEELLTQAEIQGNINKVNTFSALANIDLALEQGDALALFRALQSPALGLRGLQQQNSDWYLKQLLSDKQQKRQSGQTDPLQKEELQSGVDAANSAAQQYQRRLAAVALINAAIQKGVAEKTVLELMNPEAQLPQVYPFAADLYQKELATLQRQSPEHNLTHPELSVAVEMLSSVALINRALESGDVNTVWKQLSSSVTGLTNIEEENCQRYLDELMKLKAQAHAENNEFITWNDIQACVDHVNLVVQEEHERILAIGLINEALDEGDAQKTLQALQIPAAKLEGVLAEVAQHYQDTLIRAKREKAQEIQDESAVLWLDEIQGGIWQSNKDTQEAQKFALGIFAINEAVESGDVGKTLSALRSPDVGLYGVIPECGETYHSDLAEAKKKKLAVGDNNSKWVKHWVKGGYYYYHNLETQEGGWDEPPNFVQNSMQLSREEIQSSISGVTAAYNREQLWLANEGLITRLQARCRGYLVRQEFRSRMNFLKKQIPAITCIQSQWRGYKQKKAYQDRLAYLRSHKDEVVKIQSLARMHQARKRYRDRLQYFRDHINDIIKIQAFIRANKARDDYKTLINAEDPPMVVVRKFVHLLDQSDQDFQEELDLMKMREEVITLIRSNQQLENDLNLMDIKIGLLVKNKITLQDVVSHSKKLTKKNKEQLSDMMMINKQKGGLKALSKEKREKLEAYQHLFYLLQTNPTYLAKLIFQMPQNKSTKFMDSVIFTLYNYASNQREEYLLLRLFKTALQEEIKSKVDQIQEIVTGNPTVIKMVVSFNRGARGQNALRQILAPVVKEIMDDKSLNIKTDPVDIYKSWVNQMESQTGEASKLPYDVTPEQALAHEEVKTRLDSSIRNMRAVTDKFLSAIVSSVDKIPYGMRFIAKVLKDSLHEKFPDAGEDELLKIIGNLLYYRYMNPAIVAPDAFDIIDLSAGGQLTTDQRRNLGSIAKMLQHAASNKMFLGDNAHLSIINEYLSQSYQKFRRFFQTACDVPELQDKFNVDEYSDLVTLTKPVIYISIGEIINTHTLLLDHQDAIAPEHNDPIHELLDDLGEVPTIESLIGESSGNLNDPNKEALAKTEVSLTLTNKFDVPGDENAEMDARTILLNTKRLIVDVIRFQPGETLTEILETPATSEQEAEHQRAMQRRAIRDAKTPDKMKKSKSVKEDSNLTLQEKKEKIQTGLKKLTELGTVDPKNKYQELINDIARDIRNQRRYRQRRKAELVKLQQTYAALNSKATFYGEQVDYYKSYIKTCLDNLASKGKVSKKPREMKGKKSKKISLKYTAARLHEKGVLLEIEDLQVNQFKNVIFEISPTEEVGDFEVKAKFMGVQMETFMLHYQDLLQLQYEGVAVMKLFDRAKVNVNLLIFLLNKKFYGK
UniProt O60610: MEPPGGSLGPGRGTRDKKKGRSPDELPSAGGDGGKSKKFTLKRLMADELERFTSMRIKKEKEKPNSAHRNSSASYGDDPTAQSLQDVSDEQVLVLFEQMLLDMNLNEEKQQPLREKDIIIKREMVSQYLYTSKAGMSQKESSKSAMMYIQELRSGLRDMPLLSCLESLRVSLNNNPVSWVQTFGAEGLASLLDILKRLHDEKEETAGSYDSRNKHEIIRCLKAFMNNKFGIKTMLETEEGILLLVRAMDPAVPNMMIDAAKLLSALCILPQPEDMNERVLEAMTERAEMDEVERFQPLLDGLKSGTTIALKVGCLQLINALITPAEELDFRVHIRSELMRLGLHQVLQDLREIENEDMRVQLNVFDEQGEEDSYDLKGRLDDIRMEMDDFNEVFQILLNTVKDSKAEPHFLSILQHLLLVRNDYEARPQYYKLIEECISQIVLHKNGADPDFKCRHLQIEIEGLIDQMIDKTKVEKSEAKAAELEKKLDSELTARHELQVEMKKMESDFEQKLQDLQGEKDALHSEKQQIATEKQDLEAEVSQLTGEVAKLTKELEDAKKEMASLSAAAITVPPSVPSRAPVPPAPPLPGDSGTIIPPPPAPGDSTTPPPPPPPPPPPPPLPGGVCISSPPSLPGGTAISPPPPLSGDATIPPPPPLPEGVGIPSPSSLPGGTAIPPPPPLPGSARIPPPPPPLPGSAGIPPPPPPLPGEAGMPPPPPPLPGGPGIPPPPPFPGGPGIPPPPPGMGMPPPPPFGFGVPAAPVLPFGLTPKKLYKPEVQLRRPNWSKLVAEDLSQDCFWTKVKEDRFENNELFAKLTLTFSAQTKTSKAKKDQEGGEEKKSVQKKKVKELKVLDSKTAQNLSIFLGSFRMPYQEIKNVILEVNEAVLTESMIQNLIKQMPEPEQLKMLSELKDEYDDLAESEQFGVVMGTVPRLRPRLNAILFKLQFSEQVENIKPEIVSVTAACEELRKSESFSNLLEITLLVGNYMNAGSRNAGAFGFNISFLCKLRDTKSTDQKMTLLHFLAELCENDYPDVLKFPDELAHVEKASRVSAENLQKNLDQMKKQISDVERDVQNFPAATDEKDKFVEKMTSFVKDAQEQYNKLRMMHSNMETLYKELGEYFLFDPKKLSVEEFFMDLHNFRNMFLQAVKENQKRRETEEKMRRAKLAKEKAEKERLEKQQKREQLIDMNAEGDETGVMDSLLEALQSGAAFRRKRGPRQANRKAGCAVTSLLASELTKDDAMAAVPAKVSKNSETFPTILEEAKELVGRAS
UniProt P61586: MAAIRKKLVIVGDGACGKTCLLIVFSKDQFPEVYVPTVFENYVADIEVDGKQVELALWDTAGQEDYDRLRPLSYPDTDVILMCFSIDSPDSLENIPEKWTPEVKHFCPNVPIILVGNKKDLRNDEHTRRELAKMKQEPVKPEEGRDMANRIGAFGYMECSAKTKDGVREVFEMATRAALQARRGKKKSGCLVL

Assays:
[1] = target: IQGAP1 (human (endogenous in HeLa)) (UniProt P46940); assay: proximity ligation; Duolink In Situ Red Mouse/Rabbit on fixed HeLa cells (methanol, or 3.7% PFA for IQGAP1-CLIP170) in metaphase and anaphase; also Centrinone B-treated cells
[2] = target: T1, His6-DIAPH1-NT (human, UniProt O60610 1-575); assay: pull-down; 0.05 nmol His6-DIAPH1-NT immobilised on nickel-Sepharose beads, with or without equimolar GST-IQGAP1 or GST-RhoA (2 h), then equimolar MBP-DIAPH1-CT (2 h); 25 mM HEPES pH 7.5, 120 mM NaCl, 1 mM EGTA, 0.3% Triton X-100, 1 mM beta-mercaptoethanol; 4 °C; anti-MBP blot; both purified
T1 construct: human DIAPH1, N-terminal fragment, residues 1-575 of the 1272-residue protein; plasmid pET30a-DIAPH1-NT(1-575aa); Plasmid was a gift from J. Copeland; also called N-terminal fragment of DIAPH1; DIAPH1 N-terminal regulatory domains; source: E. coli BL21, purified (nickel-Sepharose)

Substance	binding [1]	binding [2]
DIAPH1 (from UniProt O60610 1-1272)	binds	–
GST-IQGAP1 (from UniProt P46940 1-1657)	–	binds
GST-RhoA (from UniProt P61586 1-193)	–	binds
